Measurements: the supplement of paper PMC12823440, “Inhibitors supercharge kinase turnover through native proteolytic circuits” (Nature, 2025)
Counter-ions that a name gives are not always drawn. This is one part of the list. Hit calls seldom repeat between salt and free forms of one compound.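 Kinases, fused to nanoluciferase, were expressed in K562 cells; luminescence was measured every 4 h from 2 to 18 h as percent of control (DMSO = 100%, positive control = 0%). A time point is decreased if signal falls significantly (2 sigma). Hits were called by the authors by a rule that is not shown; the count of time points alone does not decide it.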

Sequences of proteins named here, by UniProt entry; tags and fusion partners are left off. A change or cut given only in a name is not applied to a line headed by its entry.
UniProt Q15208: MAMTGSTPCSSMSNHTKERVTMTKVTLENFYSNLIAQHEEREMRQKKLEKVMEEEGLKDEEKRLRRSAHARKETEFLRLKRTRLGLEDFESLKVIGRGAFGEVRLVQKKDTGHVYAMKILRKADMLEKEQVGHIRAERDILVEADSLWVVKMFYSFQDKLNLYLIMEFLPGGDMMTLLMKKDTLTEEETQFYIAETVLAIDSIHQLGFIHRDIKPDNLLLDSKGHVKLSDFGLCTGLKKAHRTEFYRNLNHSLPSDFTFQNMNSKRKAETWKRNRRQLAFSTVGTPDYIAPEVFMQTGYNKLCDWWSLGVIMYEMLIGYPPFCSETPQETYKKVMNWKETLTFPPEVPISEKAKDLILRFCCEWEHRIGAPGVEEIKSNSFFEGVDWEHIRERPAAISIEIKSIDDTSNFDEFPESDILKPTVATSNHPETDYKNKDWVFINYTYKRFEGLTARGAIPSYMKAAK
UniProt P42680: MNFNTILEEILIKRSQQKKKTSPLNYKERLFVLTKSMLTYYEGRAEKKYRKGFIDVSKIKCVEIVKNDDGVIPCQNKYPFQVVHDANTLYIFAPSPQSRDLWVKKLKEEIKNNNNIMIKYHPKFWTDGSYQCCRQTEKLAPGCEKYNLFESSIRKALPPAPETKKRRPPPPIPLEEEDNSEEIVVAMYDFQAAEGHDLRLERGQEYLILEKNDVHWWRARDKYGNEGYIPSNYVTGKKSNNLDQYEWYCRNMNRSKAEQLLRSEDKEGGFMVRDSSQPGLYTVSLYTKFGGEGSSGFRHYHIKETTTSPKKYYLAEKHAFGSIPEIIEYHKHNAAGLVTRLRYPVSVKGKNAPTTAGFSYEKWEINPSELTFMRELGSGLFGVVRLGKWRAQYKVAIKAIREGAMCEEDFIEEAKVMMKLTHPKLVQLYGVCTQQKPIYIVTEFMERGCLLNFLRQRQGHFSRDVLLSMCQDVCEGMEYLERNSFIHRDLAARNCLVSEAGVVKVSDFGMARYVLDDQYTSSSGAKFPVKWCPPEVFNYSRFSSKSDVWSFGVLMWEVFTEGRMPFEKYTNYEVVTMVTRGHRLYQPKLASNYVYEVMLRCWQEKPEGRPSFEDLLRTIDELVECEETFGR
UniProt P29597: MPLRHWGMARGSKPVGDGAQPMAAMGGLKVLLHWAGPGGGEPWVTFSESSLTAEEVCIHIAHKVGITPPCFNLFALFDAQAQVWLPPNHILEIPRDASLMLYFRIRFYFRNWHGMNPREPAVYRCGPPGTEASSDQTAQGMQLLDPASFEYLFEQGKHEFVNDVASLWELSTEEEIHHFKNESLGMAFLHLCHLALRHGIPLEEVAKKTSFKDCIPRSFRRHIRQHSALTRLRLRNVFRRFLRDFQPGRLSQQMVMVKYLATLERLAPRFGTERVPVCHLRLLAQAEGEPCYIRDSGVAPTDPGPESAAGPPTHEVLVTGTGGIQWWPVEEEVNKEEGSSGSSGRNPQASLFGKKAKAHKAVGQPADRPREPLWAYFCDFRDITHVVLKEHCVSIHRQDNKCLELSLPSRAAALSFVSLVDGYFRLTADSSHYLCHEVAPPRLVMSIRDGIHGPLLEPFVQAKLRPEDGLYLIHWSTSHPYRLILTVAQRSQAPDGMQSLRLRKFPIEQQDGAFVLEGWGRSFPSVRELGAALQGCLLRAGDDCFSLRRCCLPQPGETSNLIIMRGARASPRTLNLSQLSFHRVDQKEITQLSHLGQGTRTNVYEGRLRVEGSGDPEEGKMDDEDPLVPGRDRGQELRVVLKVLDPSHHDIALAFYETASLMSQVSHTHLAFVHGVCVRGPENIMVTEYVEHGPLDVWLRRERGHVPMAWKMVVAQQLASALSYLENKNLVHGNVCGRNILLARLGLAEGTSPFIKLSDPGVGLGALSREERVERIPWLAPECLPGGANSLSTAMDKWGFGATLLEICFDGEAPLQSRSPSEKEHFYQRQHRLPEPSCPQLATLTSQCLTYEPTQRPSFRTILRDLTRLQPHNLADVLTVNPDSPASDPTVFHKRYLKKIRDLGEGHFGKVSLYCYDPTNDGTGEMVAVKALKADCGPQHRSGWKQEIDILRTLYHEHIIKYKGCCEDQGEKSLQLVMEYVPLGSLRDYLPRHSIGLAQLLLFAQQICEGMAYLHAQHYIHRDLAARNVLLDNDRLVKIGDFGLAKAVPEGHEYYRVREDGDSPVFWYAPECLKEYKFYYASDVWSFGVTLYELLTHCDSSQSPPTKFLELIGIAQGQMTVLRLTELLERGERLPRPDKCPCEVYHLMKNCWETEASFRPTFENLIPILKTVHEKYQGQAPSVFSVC
UniProt Q6PHR2: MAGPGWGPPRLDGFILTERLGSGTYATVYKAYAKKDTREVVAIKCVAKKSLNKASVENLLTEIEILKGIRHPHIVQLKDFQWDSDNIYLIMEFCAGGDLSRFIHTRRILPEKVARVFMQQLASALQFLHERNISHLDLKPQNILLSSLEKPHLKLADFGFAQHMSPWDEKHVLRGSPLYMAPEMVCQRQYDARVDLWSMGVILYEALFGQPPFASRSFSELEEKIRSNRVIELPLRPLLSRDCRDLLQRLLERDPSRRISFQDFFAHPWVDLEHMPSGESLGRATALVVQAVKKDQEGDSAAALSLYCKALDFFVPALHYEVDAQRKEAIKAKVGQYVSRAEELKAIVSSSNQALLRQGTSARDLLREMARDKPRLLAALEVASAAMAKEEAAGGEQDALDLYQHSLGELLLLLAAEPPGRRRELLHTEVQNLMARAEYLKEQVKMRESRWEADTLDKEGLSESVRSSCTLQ
UniProt P07947, whole entry, looked up: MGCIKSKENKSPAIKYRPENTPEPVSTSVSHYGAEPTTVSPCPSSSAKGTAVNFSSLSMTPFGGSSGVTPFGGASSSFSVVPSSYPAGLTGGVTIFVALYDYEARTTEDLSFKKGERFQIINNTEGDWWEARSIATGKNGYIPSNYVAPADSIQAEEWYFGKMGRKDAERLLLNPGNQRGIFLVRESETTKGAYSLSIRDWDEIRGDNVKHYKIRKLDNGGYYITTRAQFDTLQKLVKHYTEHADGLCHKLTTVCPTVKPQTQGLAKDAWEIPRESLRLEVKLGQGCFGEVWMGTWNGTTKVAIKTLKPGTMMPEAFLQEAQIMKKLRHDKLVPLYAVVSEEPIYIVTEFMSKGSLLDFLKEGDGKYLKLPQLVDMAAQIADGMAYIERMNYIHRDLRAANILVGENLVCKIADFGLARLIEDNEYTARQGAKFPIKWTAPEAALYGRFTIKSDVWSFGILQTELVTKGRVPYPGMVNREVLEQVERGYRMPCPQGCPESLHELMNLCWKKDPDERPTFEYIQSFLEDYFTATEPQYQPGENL
UniProt P43403: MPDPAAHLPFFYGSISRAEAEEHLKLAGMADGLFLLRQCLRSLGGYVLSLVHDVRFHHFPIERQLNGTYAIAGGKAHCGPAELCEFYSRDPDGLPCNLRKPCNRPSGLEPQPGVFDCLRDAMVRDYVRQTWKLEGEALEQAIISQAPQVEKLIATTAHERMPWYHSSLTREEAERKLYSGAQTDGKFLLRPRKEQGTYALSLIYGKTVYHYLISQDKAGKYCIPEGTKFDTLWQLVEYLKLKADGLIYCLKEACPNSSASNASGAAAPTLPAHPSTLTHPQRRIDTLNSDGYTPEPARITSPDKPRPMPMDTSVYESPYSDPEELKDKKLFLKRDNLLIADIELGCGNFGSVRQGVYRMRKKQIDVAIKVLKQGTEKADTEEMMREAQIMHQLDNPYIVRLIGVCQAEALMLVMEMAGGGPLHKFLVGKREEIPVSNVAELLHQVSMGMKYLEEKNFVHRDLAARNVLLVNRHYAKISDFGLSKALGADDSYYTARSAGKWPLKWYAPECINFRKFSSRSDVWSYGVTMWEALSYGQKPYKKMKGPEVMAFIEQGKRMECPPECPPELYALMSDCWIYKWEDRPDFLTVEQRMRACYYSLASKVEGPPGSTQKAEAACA
UniProt P00519, whole entry: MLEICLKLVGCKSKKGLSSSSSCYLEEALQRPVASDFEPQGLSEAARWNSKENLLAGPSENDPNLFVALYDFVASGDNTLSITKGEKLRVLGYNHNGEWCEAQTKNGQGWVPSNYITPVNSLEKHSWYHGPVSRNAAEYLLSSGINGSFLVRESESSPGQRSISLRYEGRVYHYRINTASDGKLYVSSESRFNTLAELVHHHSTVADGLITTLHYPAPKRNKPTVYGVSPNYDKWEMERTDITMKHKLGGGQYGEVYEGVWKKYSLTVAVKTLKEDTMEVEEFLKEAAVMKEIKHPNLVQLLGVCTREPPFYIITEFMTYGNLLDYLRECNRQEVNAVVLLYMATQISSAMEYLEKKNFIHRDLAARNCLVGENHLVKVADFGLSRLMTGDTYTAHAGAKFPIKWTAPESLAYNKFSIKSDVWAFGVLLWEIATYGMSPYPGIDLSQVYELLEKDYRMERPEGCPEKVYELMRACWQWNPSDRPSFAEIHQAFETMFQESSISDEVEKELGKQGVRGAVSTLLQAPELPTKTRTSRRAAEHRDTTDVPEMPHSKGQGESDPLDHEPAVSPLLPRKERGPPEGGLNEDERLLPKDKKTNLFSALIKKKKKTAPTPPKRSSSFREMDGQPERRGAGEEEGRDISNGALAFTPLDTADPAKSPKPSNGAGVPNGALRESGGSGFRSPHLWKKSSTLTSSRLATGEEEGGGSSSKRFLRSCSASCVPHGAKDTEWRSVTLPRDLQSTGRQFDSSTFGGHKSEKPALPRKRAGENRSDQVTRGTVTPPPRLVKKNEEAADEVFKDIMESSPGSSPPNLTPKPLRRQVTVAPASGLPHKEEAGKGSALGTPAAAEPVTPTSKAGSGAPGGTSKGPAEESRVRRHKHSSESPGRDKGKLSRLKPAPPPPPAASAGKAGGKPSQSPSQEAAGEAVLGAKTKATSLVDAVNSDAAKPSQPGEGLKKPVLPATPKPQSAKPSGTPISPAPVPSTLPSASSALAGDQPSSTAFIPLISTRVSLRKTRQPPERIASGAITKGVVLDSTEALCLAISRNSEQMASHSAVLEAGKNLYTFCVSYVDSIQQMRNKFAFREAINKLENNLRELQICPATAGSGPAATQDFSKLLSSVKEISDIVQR
UniProt P31749: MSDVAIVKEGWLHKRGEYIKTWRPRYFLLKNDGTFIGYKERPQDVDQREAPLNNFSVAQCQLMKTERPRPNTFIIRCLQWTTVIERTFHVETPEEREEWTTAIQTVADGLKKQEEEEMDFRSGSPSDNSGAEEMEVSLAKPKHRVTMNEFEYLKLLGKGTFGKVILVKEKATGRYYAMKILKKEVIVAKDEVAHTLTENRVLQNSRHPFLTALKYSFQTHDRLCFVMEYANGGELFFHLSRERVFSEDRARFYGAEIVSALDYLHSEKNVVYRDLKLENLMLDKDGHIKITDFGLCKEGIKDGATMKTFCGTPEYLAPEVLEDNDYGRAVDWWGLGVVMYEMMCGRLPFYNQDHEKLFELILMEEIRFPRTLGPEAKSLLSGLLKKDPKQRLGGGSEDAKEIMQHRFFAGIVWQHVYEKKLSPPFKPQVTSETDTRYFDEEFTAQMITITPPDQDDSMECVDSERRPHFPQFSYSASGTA

Tests used:
Conditions in all cases: K562; 2-18 h
STK38 = STK38 (UniProt Q15208); experiment: kinase-Nluc reporter destabilization hit call (1 = scored as downregulated) (binary); higher = compound decreases kinase abundance
SYK = SYK (UniProt P43405); experiment: as above
TEC = TEC (UniProt P42680); experiment: as above
TYK2 = TYK2 (UniProt P29597); experiment: as above
ULK3 = ULK3 (UniProt Q6PHR2); experiment: as above
YES1 = YES1 (UniProt P07947); experiment: as above
ZAK = ZAK (UniProt Q9NYL2); experiment: as above
ZAP70 = ZAP70 (UniProt P43403); experiment: as above
ABL1 = ABL1 (UniProt P00519); experiment: number of time points (of 5) at which kinase-Nluc abundance scored as decreased, DMSO-normalised (count); higher = more persistent destabilization
AKT1 = AKT1 (UniProt P31749); experiment: as above

Cn1cc(-c2c[nH]c3ncnc(N4CCOCC4)c23)cc1C#N (10 µM)
0: number of time points (ABL1) | number of time points (AKT1)
inactive: kinase-Nluc reporter destabilization hit call (STK38) 0 | kinase-Nluc reporter destabilization hit call (SYK) 0 | kinase-Nluc reporter destabilization hit call (TEC) 0 | kinase-Nluc reporter destabilization hit call (TYK2) 0 | kinase-Nluc reporter destabilization hit call (ULK3) 0 | kinase-Nluc reporter destabilization hit call (YES1) 0 | kinase-Nluc reporter destabilization hit call (ZAK) 0 | kinase-Nluc reporter destabilization hit call (ZAP70) 0

Cn1cc(-c2cnc3cnn(S(=O)(=O)c4cnc5ccc(-c6cnn(C)c6)cn45)c3c2)cn1 [Glumetinib] (10 µM)
inactive: kinase-Nluc reporter destabilization hit call (STK38) 0 | kinase-Nluc reporter destabilization hit call (SYK) 0 | kinase-Nluc reporter destabilization hit call (TEC) 0 | kinase-Nluc reporter destabilization hit call (TYK2) 0 | kinase-Nluc reporter destabilization hit call (ULK3) 0 | kinase-Nluc reporter destabilization hit call (YES1) 0 | kinase-Nluc reporter destabilization hit call (ZAK) 0 | kinase-Nluc reporter destabilization hit call (ZAP70) 0
0: number of time points (ABL1) | number of time points (AKT1)

CCCNC(=O)Nc1ccc(Oc2ncnc3cc(OC)c(OC)cc23)cc1Cl (2.5 µM)
inactive: kinase-Nluc reporter destabilization hit call (STK38) 0 | kinase-Nluc reporter destabilization hit call (SYK) 0 | kinase-Nluc reporter destabilization hit call (TEC) 0 | kinase-Nluc reporter destabilization hit call (TYK2) 0 | kinase-Nluc reporter destabilization hit call (ULK3) 0 | kinase-Nluc reporter destabilization hit call (YES1) 0 | kinase-Nluc reporter destabilization hit call (ZAK) 0 | kinase-Nluc reporter destabilization hit call (ZAP70) 0
0: number of time points (ABL1) | number of time points (AKT1)

CN1C(=O)[C@@H](NC(=O)c2n[nH]c(Cc3ccccc3)n2)COc2ccccc21 (10 µM)
0: number of time points (ABL1) | number of time points (AKT1)
inactive: kinase-Nluc reporter destabilization hit call (STK38) 0 | kinase-Nluc reporter destabilization hit call (SYK) 0 | kinase-Nluc reporter destabilization hit call (TEC) 0 | kinase-Nluc reporter destabilization hit call (TYK2) 0 | kinase-Nluc reporter destabilization hit call (ULK3) 0 | kinase-Nluc reporter destabilization hit call (YES1) 0 | kinase-Nluc reporter destabilization hit call (ZAK) 0 | kinase-Nluc reporter destabilization hit call (ZAP70) 0

CC(C)N1CCN(c2ccc(Nc3ncc4cc5n(c4n3)C3(CCCCC3)CNC5=O)nc2)CC1 [Lerociclib (dihydrochloride)] (2 µM)
inactive: kinase-Nluc reporter destabilization hit call (STK38) 0 | kinase-Nluc reporter destabilization hit call (SYK) 0 | kinase-Nluc reporter destabilization hit call (TEC) 0 | kinase-Nluc reporter destabilization hit call (TYK2) 0 | kinase-Nluc reporter destabilization hit call (ULK3) 0 | kinase-Nluc reporter destabilization hit call (YES1) 0 | kinase-Nluc reporter destabilization hit call (ZAK) 0 | kinase-Nluc reporter destabilization hit call (ZAP70) 0
0: number of time points (ABL1) | number of time points (AKT1)

COc1ncccc1-c1cnn2ccc(N3CCN(C(=O)OC(C)C)CC3)nc12 (10 µM)
inactive: kinase-Nluc reporter destabilization hit call (STK38) 0 | kinase-Nluc reporter destabilization hit call (SYK) 0 | kinase-Nluc reporter destabilization hit call (TEC) 0 | kinase-Nluc reporter destabilization hit call (TYK2) 0 | kinase-Nluc reporter destabilization hit call (ULK3) 0 | kinase-Nluc reporter destabilization hit call (YES1) 0 | kinase-Nluc reporter destabilization hit call (ZAK) 0 | kinase-Nluc reporter destabilization hit call (ZAP70) 0
0: number of time points (ABL1) | number of time points (AKT1)

CCN(CC)c1ccc2cc(-c3nc4cc(C)ccc4o3)c(=O)oc2c1 (10 µM)
inactive: kinase-Nluc reporter destabilization hit call (STK38) 0 | kinase-Nluc reporter destabilization hit call (SYK) 0 | kinase-Nluc reporter destabilization hit call (TEC) 0 | kinase-Nluc reporter destabilization hit call (TYK2) 0 | kinase-Nluc reporter destabilization hit call (ULK3) 0 | kinase-Nluc reporter destabilization hit call (YES1) 0 | kinase-Nluc reporter destabilization hit call (ZAK) 0 | kinase-Nluc reporter destabilization hit call (ZAP70) 0
0: number of time points (ABL1) | number of time points (AKT1)

O=C(Nc1nc2ccccc2[nH]1)c1cccc([N+](=O)[O-])c1 [IRAK-4 protein kinase inhibitor 2] (10 µM)
0: number of time points (ABL1) | number of time points (AKT1)
inactive: kinase-Nluc reporter destabilization hit call (STK38) 0 | kinase-Nluc reporter destabilization hit call (SYK) 0 | kinase-Nluc reporter destabilization hit call (TEC) 0 | kinase-Nluc reporter destabilization hit call (TYK2) 0 | kinase-Nluc reporter destabilization hit call (ULK3) 0 | kinase-Nluc reporter destabilization hit call (YES1) 0 | kinase-Nluc reporter destabilization hit call (ZAK) 0 | kinase-Nluc reporter destabilization hit call (ZAP70) 0

C#Cc1cccc(Nc2ncnc3cc(OC)c(OCCCCCCC(=O)NO)cc23)c1 (2.5 µM)
inactive: kinase-Nluc reporter destabilization hit call (STK38) 0 | kinase-Nluc reporter destabilization hit call (SYK) 0 | kinase-Nluc reporter destabilization hit call (TEC) 0 | kinase-Nluc reporter destabilization hit call (TYK2) 0 | kinase-Nluc reporter destabilization hit call (ULK3) 0 | kinase-Nluc reporter destabilization hit call (YES1) 0 | kinase-Nluc reporter destabilization hit call (ZAK) 0 | kinase-Nluc reporter destabilization hit call (ZAP70) 0
0: number of time points (ABL1) | number of time points (AKT1)

O=C1/C(=C\c2ccc(Cl)cc2)C=C(c2ccccc2)N1c1ccc(O)cc1 (2.5 µM)
inactive: kinase-Nluc reporter destabilization hit call (STK38) 0 | kinase-Nluc reporter destabilization hit call (SYK) 0 | kinase-Nluc reporter destabilization hit call (TEC) 0 | kinase-Nluc reporter destabilization hit call (TYK2) 0 | kinase-Nluc reporter destabilization hit call (ULK3) 0 | kinase-Nluc reporter destabilization hit call (YES1) 0 | kinase-Nluc reporter destabilization hit call (ZAK) 0 | kinase-Nluc reporter destabilization hit call (ZAP70) 0
0: number of time points (ABL1) | number of time points (AKT1)

C=C[C@@](C)(/C=C/c1ccc(O)cc1)CCC=C(C)C [Bakuchiol] (10 µM)
0: number of time points (ABL1) | number of time points (AKT1)
inactive: kinase-Nluc reporter destabilization hit call (STK38) 0 | kinase-Nluc reporter destabilization hit call (SYK) 0 | kinase-Nluc reporter destabilization hit call (TEC) 0 | kinase-Nluc reporter destabilization hit call (TYK2) 0 | kinase-Nluc reporter destabilization hit call (ULK3) 0 | kinase-Nluc reporter destabilization hit call (YES1) 0 | kinase-Nluc reporter destabilization hit call (ZAK) 0 | kinase-Nluc reporter destabilization hit call (ZAP70) 0

Sorted by number of heavy atoms (smallest number first): part of the list above
C=C[C@@](C)(/C=C/c1ccc(O)cc1)CCC=C(C)C [Bakuchiol] (10 µM)
0: number of time points (ABL1) | number of time points (AKT1)
inactive: kinase-Nluc reporter destabilization hit call (STK38) 0 | kinase-Nluc reporter destabilization hit call (SYK) 0 | kinase-Nluc reporter destabilization hit call (TEC) 0 | kinase-Nluc reporter destabilization hit call (TYK2) 0 | kinase-Nluc reporter destabilization hit call (ULK3) 0 | kinase-Nluc reporter destabilization hit call (YES1) 0 | kinase-Nluc reporter destabilization hit call (ZAK) 0 | kinase-Nluc reporter destabilization hit call (ZAP70) 0

O=C(Nc1nc2ccccc2[nH]1)c1cccc([N+](=O)[O-])c1 [IRAK-4 protein kinase inhibitor 2] (10 µM)
0: number of time points (ABL1) | number of time points (AKT1)
inactive: kinase-Nluc reporter destabilization hit call (STK38) 0 | kinase-Nluc reporter destabilization hit call (SYK) 0 | kinase-Nluc reporter destabilization hit call (TEC) 0 | kinase-Nluc reporter destabilization hit call (TYK2) 0 | kinase-Nluc reporter destabilization hit call (ULK3) 0 | kinase-Nluc reporter destabilization hit call (YES1) 0 | kinase-Nluc reporter destabilization hit call (ZAK) 0 | kinase-Nluc reporter destabilization hit call (ZAP70) 0

COc1ncccc1-c1cnn2ccc(N3CCN(C(=O)OC(C)C)CC3)nc12 (10 µM)
inactive: kinase-Nluc reporter destabilization hit call (STK38) 0 | kinase-Nluc reporter destabilization hit call (SYK) 0 | kinase-Nluc reporter destabilization hit call (TEC) 0 | kinase-Nluc reporter destabilization hit call (TYK2) 0 | kinase-Nluc reporter destabilization hit call (ULK3) 0 | kinase-Nluc reporter destabilization hit call (YES1) 0 | kinase-Nluc reporter destabilization hit call (ZAK) 0 | kinase-Nluc reporter destabilization hit call (ZAP70) 0
0: number of time points (ABL1) | number of time points (AKT1)

More records

C=CC(=O)Nc1cc(-n2c(=O)ccc3cnc4ccc(-c5ccc(NS(C)(=O)=O)cc5)cc4c32)ccc1C (10 µM)
inactive: kinase-Nluc reporter destabilization hit call (STK38) 0 | kinase-Nluc reporter destabilization hit call (SYK) 0 | kinase-Nluc reporter destabilization hit call (TEC) 0 | kinase-Nluc reporter destabilization hit call (ULK3) 0 | kinase-Nluc reporter destabilization hit call (YES1) 0 | kinase-Nluc reporter destabilization hit call (ZAK) 0 | kinase-Nluc reporter destabilization hit call (ZAP70) 0
active: kinase-Nluc reporter destabilization hit call (TYK2) 1
0: number of time points (ABL1) | number of time points (AKT1)

O=C(Nc1cccc(Nc2ncc(Br)c(NCCc3cnc[nH]3)n2)c1)N1CCCC1 (10 µM)
0: number of time points (AKT1)
4: number of time points (ABL1)
inactive: kinase-Nluc reporter destabilization hit call (STK38) 0 | kinase-Nluc reporter destabilization hit call (SYK) 0 | kinase-Nluc reporter destabilization hit call (TEC) 0 | kinase-Nluc reporter destabilization hit call (TYK2) 0 | kinase-Nluc reporter destabilization hit call (ULK3) 0 | kinase-Nluc reporter destabilization hit call (YES1) 0 | kinase-Nluc reporter destabilization hit call (ZAK) 0 | kinase-Nluc reporter destabilization hit call (ZAP70) 0

CC(C)(O)[C@H]1CC[C@H](Nc2ccc3ncc(-c4cccc(C(F)(F)F)c4)n3n2)CC1 (10 µM)
inactive: kinase-Nluc reporter destabilization hit call (STK38) 0 | kinase-Nluc reporter destabilization hit call (SYK) 0 | kinase-Nluc reporter destabilization hit call (TEC) 0 | kinase-Nluc reporter destabilization hit call (TYK2) 0 | kinase-Nluc reporter destabilization hit call (ULK3) 0 | kinase-Nluc reporter destabilization hit call (YES1) 0 | kinase-Nluc reporter destabilization hit call (ZAK) 0 | kinase-Nluc reporter destabilization hit call (ZAP70) 0
0: number of time points (ABL1) | number of time points (AKT1)

COc1ccc(N=Nc2c(N)n[nH]c2N)cc1 (10 µM)
inactive: kinase-Nluc reporter destabilization hit call (STK38) 0 | kinase-Nluc reporter destabilization hit call (SYK) 0 | kinase-Nluc reporter destabilization hit call (TEC) 0 | kinase-Nluc reporter destabilization hit call (TYK2) 0 | kinase-Nluc reporter destabilization hit call (ULK3) 0 | kinase-Nluc reporter destabilization hit call (YES1) 0 | kinase-Nluc reporter destabilization hit call (ZAK) 0 | kinase-Nluc reporter destabilization hit call (ZAP70) 0
0: number of time points (ABL1) | number of time points (AKT1)

Cc1nc(-c2cnn(C)c2)nc2c1[nH]c1ncc(-c3ccc(N4CCN(C)CC4)cc3)cc12 [GNE 220 (hydrochloride)] (10 µM)
0: number of time points (ABL1) | number of time points (AKT1)
inactive: kinase-Nluc reporter destabilization hit call (STK38) 0 | kinase-Nluc reporter destabilization hit call (SYK) 0 | kinase-Nluc reporter destabilization hit call (TEC) 0 | kinase-Nluc reporter destabilization hit call (TYK2) 0 | kinase-Nluc reporter destabilization hit call (ULK3) 0 | kinase-Nluc reporter destabilization hit call (YES1) 0 | kinase-Nluc reporter destabilization hit call (ZAK) 0 | kinase-Nluc reporter destabilization hit call (ZAP70) 0
